Assay results as given in US20070173787A1, “Thin-film nitinol based drug eluting stent” (priority 2005, published 2007).
At least one structure is not confirmed: it was looked up by name or label, or the drawing left a doubt.

Experiments:
[1] = test system: elastase-induced abdominal aortic aneurysms; assay: Elastase-induced rat model of abdominal aortic aneurysm; type: in vivo; details: 60 mg/kg/day, day 7
Excerpt: The following example is provided to assist in a further understanding of the present invention. The particular materials and conditions employed are intended to be further illustrative of the invention and are not limiting upon the reasonable scope thereof Male Wistar rats (350-400 g) were subjected to perfusion of an isolated segment of the infrarenal abdominal aorta with 50 units of porcine pancreatic elastase, using the method described by Anidjar et al. (Anidjar, S. Salzmann, J L, Generic, D, Lagneau, P, Camilleri, J P, and Michel, J B, “Elastase induced experimental aneurysms in rats,” Circulation 82:973-981 (1990); Halpern et al. (Halpern, V J. Liao, Nackman, G B, Gandhi, R H, Irizarry, E, Scholes, J V, Ramey, W G, and Tilson, M D, “The elastase infusion model of experimental aortic aneurysms: Synchrony of induction of endogenous protinases with matrix destruction and inflammatory cell response, “J. Vasc. Surg. […] Aortic diameter (AD) was measured with microcalipers before and after elastase perfusion, and just prior to sacrifice on day 7. Abdominal aortic aneurysms were defined as an increase in final AD to at least twice that measured before perfusion (≥100% increase). […] Tissues from the remaining animals were extracted, normalized to total protein, and analyzed by gelatin substrate zymography as described (Thompson et al. 1995; Halpern et al. 1994; Petrinec 1996).

[2] = test system: neointimal hyperplasia in porcine model; assay: Porcine studies with rapamycin-coated stents; type: in vivo; details: porcine and rabbit models; nonerodible polymeric stent coating, 35-430 ug/15-18 mm coronary stent; maximal at about 28 to 30 days
[3] = test system: monocyte chemotactic protein (MCP-1); assay: Cytokine levels in vascular tissue after delivery from a stent (FIG. 75); type: in vivo; details: delivered from a stent
[4] = Liquid formulations of water insoluble rapamycins: concentration (HPLC) and visual observation; type: physicochemical
Excerpt: In accordance with exemplary embodiments of the present invention, a series of liquid formulations were developed for the local or regional delivery of water insoluble compounds such as sirolimus and its analogs, including CCI-779, ABT-578 and everolimus, through weeping balloons and catheter injection needles. […] These liquid formulations increase the apparent solubility of the pharmacologically active but water insoluble compounds by two to four orders. of magnitude as compared to the solubility limits of the compounds in water. These liquid formulations rely on the use of a very small amount of organic solvents such as Ethanol (typically less than two percent) and a larger amount of safe-amphiphilic (of or relating to a molecule having-a polar; water soluble group attached to a non-polar, water insoluble […]) excipients such as polyethylene glycol (PEG 200, PEG 400) and vitamin E TPGS to enhance the solubility of the compounds. These liquid formulations of highly. water insoluble compounds are stable and readily flowable at room temperature. Certain excipients, such as Vitamin E TPGS and BHT may be utilized to enhance the storage stability of sirolimus compounds through their anti-oxidation properties.
Table 8, shown below, summarizes the concentrations of the excipient, the co-solvents and the drug for four different liquid formulations in accordance with exemplary embodiments of the present invention.
In another exemplary embodiment, the liquid formulation of sirolimus comprises water and ethanol as co-solvents and Vitamin E TPGS as the excipient. The liquid formulation was created utilizing the following process. Two hundred milligrams of sirolimus and two grams of ethanol were added to a pre-weighed twenty milliliter scintillation vial. The vial was vortexed and sonicated until the sirolimus was completely dissolved. Approximately six hundred milligrams of Vitamin E TPGS was then added to the solution of ethanol and sirolimus. The vial was vortexed again until a clear yellowish solution was obtained. […]

Compound | abdominal aortic aneurysms observed [1] | peak reduction in neointimal hyperplasia [2] | reduction of MCP-1 levels in the vascular wall [3] | dilution with water at which sirolimus starts to precipitate out of solution ([4]; PEG 200 formulation) | concentration in the final solution (HPLC assay) ([4]; ethanol (less than two percent), Vitamin E TPGS and water) [µg/mL] | concentration of sirolimus achieved in liquid formulation ([4]; ethanol two percent, water twenty-five percent, PEG 200 seventy-five percent) [µg/mL]
C[C@H]1c2cccc(O)c2C(=O)C2=C(O)[C@]3(O)C(=O)C(C(N)=O)=C(O)[C@@H](N(C)C)[C@@H]3[C@@H](O)[C@@H]21 [Dox, doxycycline] | no abdominal aortic aneurysms were observed |  |  |  |  | 
CO[C@H]1C[C@@H]2CC[C@@H](C)[C@@](O)(O2)C(=O)C(=O)N2CCCC[C@H]2C(=O)O[C@H]([C@H](C)C[C@@H]2CC[C@@H](O)[C@H](OC)C2)CC(=O)[C@H](C)/C=C(\C)[C@@H](O)[C@@H](OC)C(=O)[C@H](C)C[C@H](C)/C=C/C=C/C=C/1C [rapamycin] |  | fifty to fifty-five | highly effective in reducing monocyte chemotactic protein (MCP-1) levels | five to ten | 15000 | 4000
